In article PMC12679539, “Synthesis and evaluation of nitroheterocyclic aromatic adamantane amides with trypanocidal activity. Part II” (RSC Medicinal Chemistry, 2025):

Key:
[1] = tested on: T. cruzi epimastigotes; assay: Activity against Trypanosoma cruzi epimastigotes (Alamar Blue growth inhibition); type: cell-based, Trypanosoma cruzi (strain CL Brener); conditions: ratio of IC50 values obtained with L6 cells and T. cruzi epimastigotes
Method: Trypanocidal activity was assessed by growing parasites in microtiter plates in the presence of various drug concentrations. […] The plates were incubated for 4 days at 28 °C and 20 μL Alamar Blue (Biosource UK Ltd) was then added to each well. After an additional 3 days incubation, the fluorescence was determined using a Gemini fluorescent plate reader (Molecular Devices). Inhibition of growth was calculated by comparison with control values and IC50 and IC90 values were determined in triplicate using linear regression analysis.

[2] = tested on: T. cruzi intracellular amastigotes; type: cell-based, Trypanosoma cruzi CL Brener PpyRE9h:mScarlet
Method: Assays were performed in 96-well black (clear bottom) microtitre plates (Corning Inc.). HeLa ^† cells were seeded at 10^4 per well, incubated for 3 days, and then infected with T. cruzi CL Brener PpyRE9h : mScarlet[25] culture form trypomastigotes (1 : 1 multiplicity of infection). After 16 hours, extracellular parasites were removed by washing in growth medium (×3), test compounds were added, and the plates incubated for 5 days. Fluorescence intensities were then determined using a BMG FLUOstar Omega plate reader (ex 545 nm, em 590 nm), and the data analysed using GraphPad Prism 9.0 software. The values were expressed as IC50/90 ± SD and are the mean of triplicate experiments.

Structure (SMILES) | S.I. (epimastigotes) IC50/Tc IC50 [1] | S.I. (intracellular) IC50/Tc IC50 [2] | S.I. (intracellular) IC50/Tc IC50 ([2]; ratio of IC50 values obtained with L6 cells and T. cruzi intracellular amastigotes)
O=C(CCc1ccc(C23CC4CC(CC(C4)C2)C3)cc1)NCCCn1cnc([N+](=O)[O-])n1 [6f, 3-[4-(1-Adamantyl)phenyl]-N-[3-(3-nitro-1H-1,2,4-triazol-1-yl)propyl]propanamide] | 43 | 8 | –
O=C(CCc1ccc(C23CC4CC(CC(C4)C2)C3)cc1)NCCn1cnc([N+](=O)[O-])n1 [6c, 3-[4-(1-Adamantyl)phenyl]-N-[2-(3-nitro-1H-1,2,4-triazol-1-yl)ethyl]propanamide] | 50 | 15 | –
O=C(NCCc1ccc(C2C3CC4CC(C3)CC2C4)cc1)c1ccc([N+](=O)[O-])o1 (stereo not shown) [2c, N-[4-(2-Adamantyl)phenethyl]-5-nitrofuran-2-carboxamide] | 6 | – | –
O=C(NCCCn1cnc([N+](=O)[O-])n1)c1ccc(C23CC4CC(CC(C4)C2)C3)cc1 [6d, 4-(1-Adamantyl)-N-[3-(3-nitro-1H-1,2,4-triazol-1-yl)propyl] benzamide] | 49 | 6 | –
O=C(NCCn1cnc([N+](=O)[O-])n1)c1ccc(C23CC4CC(CC(C4)C2)C3)cc1 [6a, 4-(1-Adamantyl)-N-[2-(3-nitro-1H-1,2,4-triazol-1-yl)ethyl] benzamide] | 51 | 6 | –
O=C(NCc1ccc(C2C3CC4CC(C3)CC2C4)cc1)c1ccc([N+](=O)[O-])o1 (stereo not shown) [2b, N-[4-(2-Adamantyl)benzyl]-5-nitrofuran-2-carboxamide] | 3 | – | –
O=C(Cc1ccc(C23CC4CC(CC(C4)C2)C3)cc1)NCCCn1cnc([N+](=O)[O-])n1 [6e, 2-[4-(1-Adamantyl)phenyl]-N-[3-(3-nitro-1H-1,2,4-triazol-1-yl)propyl]acetamide] | 168 | 9 | –
O=C(Cc1ccc(C23CC4CC(CC(C4)C2)C3)cc1)NCCn1cnc([N+](=O)[O-])n1 [6b, 2-[4-(1-Adamantyl)phenyl]-N-[2-(3-nitro-1H-1,2,4-triazol-1-yl)ethyl]acetamide] | 154 | 16 | –
O=C(Cn1ccnc1[N+](=O)[O-])NCc1ccccc1 [Bzn, benznidazole, reference compound] | 95 | – | 490

Where two headings read alike, the source gives them in different places.
